# Where a name gives a salt, the structure may show the parent alone. Some of the results follow. Single values are uncertain, as repeats are few or missing.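 The three strains are clinical Candida auris isolates from the CDC resistance isolate bank, from clades III, IV and I, grown in RPMI-1640 at 35°C. Growth is background-corrected OD600 relative to vehicle-only wells on the same plate; a hit meant over 50% inhibition in at least two strains plus a plate-corrected B-score above 0.1.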
# System: C. auris AR-386
# Test: growth relative to vehicle control (OD600 ratio) (fraction); higher = less inhibition
# Conditions: 10 µM; 24 h
row,Compound,growth
1,O=C(O)c1cc(=O)c2c(OCC(O)COc3cccc4oc(C(=O)O)cc(=O)c34)cccc2o1 [Disodium Cromoglycate],1.02
2,"CC1CCC(C(C)C)C(O)C1 (single isomer, unassigned; (-)) [(-)-Menthol]",1.17
3,C[C@H](Cc1cc2c(c(C(N)=O)c1)N(CCCO)CC2)NCCOc1ccccc1OCC(F)(F)F [Silodosin],1.21
4,CC(C(=O)O)c1ccc(-c2ccccc2)c(F)c1 (configuration not stated) [Flurbiprofen],1.15
5,CCOC(=O)C1=C(C)NC(C)=C(C(=O)OC)C1c1cccc(Cl)c1Cl (configuration not stated) [Felodipine],1.68
6,CCC(NC(C)C)C(O)c1ccc(O)c(O)c1 (configuration not stated) [Isoetharine Mesylate],0.8
7,CCOC(=O)C1=C(C)NC(C)=C(C(=O)OCC)C1c1ccccc1/C=C/C(=O)OC(C)(C)C [Lacidipine],1.14

# System: C. auris AR-387
# Test: as above
# Conditions: 1 µM; 24 h
row,Compound,growth
1,Cc1nc(Nc2ncc(C(=O)Nc3c(C)cccc3Cl)s2)cc(N2CCN(CCO)CC2)n1 [Dasatinib Monohydrate],0.69
2,CCN1CCN(Cc2ccc(Nc3ncc(F)c(-c4cc(F)c5nc(C)n(C(C)C)c5c4)n3)nc2)CC1,0.81
3,Cc1c(Cl)cccc1Nc1ccccc1C(=O)O [Tolfenamic Acid],0.89
4,C[N+]1(C)CCC(OC(=O)C(O)(c2ccccc2)C2CCCC2)C1 (configuration not stated) [Glycopyrrolate],0.78
5,Cc1cc2c(s1)Nc1ccccc1N=C2N1CCN(C)CC1 [Olanzapine],1.01
6,CCC(=O)O[C@]1(C(=O)CCl)[C@@H](C)C[C@H]2[C@@H]3C[C@H](F)C4=CC(=O)C=C[C@]4(C)[C@@]3(F)[C@@H](O)C[C@@]21C [Halobetasol Propionate],1.09
7,CN(C)c1nc(N(C)C)nc(N(C)C)n1 [Altretamine],0.83
8,Cc1cn([C@@H]2C[C@@H](O)[C@H](CO)O2)c(=O)[nH]c1=O [Telbivudine],0.75
9,O=C(CCNNC(=O)c1ccncc1)NCc1ccccc1 [Nialamide],0.95
10,CCCN[C@H]1CCc2nc(N)sc2C1 [Pramipexole],1.37
11,C[N+]1(C)[C@@H]2C[C@@H](OC(=O)C(O)(c3cccs3)c3cccs3)C[C@H]1[C@@H]1O[C@@H]12 [Tiotropium Bromide hydrate],0.7
12,Cc1cccc(C)c1OCC(=O)N[C@@H](Cc1ccccc1)[C@@H](O)C[C@H](Cc1ccccc1)NC(=O)[C@H](C(C)C)N1CCCNC1=O [Lopinavir],1.06
13,CC(CCc1ccccc1)NCC(O)c1ccc(O)c(C(N)=O)c1 (configuration not stated) [Labetalol HCl],0.67
14,Cc1cccc(Nc2ccccc2C(=O)O)c1C [Mefenamic Acid],1.03
15,COc1cc(C(=O)NC2CCCNC2)cc(OC)c1OC (configuration not stated) [Troxipide],1.02
16,CCCCc1nc(Cl)c(CO)n1Cc1ccc(-c2ccccc2-c2nnn[nH]2)cc1 [Losartan Potassium (DuP 753)],1.31
17,CC[C@]1(O)C[C@H]2CN(CCc3c([nH]c4ccccc34)[C@@](C(=O)OC)(c3cc4c(cc3OC)N(C=O)[C@H]3[C@@](O)(C(=O)OC)[C@H](OC(C)=O)[C@]5(CC)C=CCN6CC[C@]43[C@@H]65)C2)C1 [Vincristine sulfate],0.67
18,CC#C[C@]1(O)CC[C@H]2[C@@H]3CCC4=CC(=O)CCC4=C3[C@@H](c3ccc(N(C)C)cc3)C[C@@]21C [Mifepristone],0.82
19,Cc1nc(C)c(Cl)c(O)c1Cl [Clopidol],0.84
20,O=C1OCCN1/N=C/c1ccc([N+](=O)[O-])o1 [Furazolidone],1.12

row,Compound,growth
1,CN(C)[C@@H]1C(O)=C(C(N)=O)C(=O)[C@@]2(O)C(O)=C3C(=O)c4c(O)cccc4[C@@](C)(O)[C@H]3[C@H](O)[C@@H]12 [Oxytetracycline (Terramycin)],0.55
2,C#C[C@]1(OC(C)=O)CC[C@H]2[C@@H]3CCC4=C[C@@H](OC(C)=O)CC[C@@H]4[C@H]3CC[C@@]21C [Ethynodiol diacetate],0.81
3,OCc1cc(C(O)CNCCCCCCOCCCCc2ccccc2)ccc1O (configuration not stated) [Salmeterol Xinafoate],1
4,C[C@@H](O)[C@H]1C(=O)N2C(C(=O)O)=C(S[C@@H]3CN[C@H](C(=O)N(C)C)C3)[C@H](C)[C@H]12 [Meropenem],0.96
5,CC(O)(P(=O)(O)O)P(=O)(O)O [Etidronate],0.7
6,Cn1c([N+](=O)[O-])cnc1COC(N)=O [Ronidazole],1.14
7,Brc1c(NC2=NCCN2)ccc2nccnc12 [Brimonidine Tartrate],0.57
8,COC(c1ccccc1)(c1ccccc1)[C@H](Oc1nc(C)cc(C)n1)C(=O)O [Ambrisentan],0.7
9,CC(=O)N[C@@H](CCC(N)=O)C(=O)O [Aceglutamide],0.92
10,CC[C@@H]([C@H](C)O)n1ncn(-c2ccc(N3CCN(c4ccc(OC[C@@H]5CO[C@@](Cn6cncn6)(c6ccc(F)cc6F)C5)cc4)CC3)cc2)c1=O [Posaconazole],0.04
11,Cc1nc(=O)c2cc(CN(C)c3ccc(C(=O)N[C@@H](CCC(=O)O)C(=O)O)s3)ccc2[nH]1 [Raltitrexed],1.26
12,Cc1cn[nH]c1 [Fomepizole],0.97
13,COc1ccc2c(c1)c(CC(=O)OCC(=O)O)c(C)n2C(=O)c1ccc(Cl)cc1 [Acemetacin],0.84
14,O=C(O)c1cc(=O)c2c(OCC(O)COc3cccc4oc(C(=O)O)cc(=O)c34)cccc2o1 [Disodium Cromoglycate],0.81
15,"CC1CCC(C(C)C)C(O)C1 (single isomer, unassigned; (-)) [(-)-Menthol]",0.8
16,C[C@H](Cc1cc2c(c(C(N)=O)c1)N(CCCO)CC2)NCCOc1ccccc1OCC(F)(F)F [Silodosin],0.91
17,CC(C(=O)O)c1ccc(-c2ccccc2)c(F)c1 (configuration not stated) [Flurbiprofen],0.9
18,CCOC(=O)C1=C(C)NC(C)=C(C(=O)OC)C1c1cccc(Cl)c1Cl (configuration not stated) [Felodipine],1.38
19,CCC(NC(C)C)C(O)c1ccc(O)c(O)c1 (configuration not stated) [Isoetharine Mesylate],0.76
20,CCOC(=O)C1=C(C)NC(C)=C(C(=O)OCC)C1c1ccccc1/C=C/C(=O)OC(C)(C)C [Lacidipine],0.69

# — the supplement of paper PMC10470496
